# Source: US20090048196A1, “Membrane receptor for retinol binding protein mediates cellular uptake of vitamin A, methods of use and compositions” (THE REGENTS OF THE UNIVERSITY OF CALIFORNIA, priority 2007, published 2009)
# For at least one compound, name, drawing or mass did not settle the structure.
# What was measured:
# human STRA6 = assay: STRA6 expression in WiDr cells (semi-quantitative PCR); type: cell-based; settings: retinoic acid treatment 55 hours
# Method: RNAi transfection and retinoic acid treatment of human WiDr colon adenocarcinoma cells: WiDr cells (American Type Culture Collection) were grown in Earle's balanced salt media with 10% FBS at 37° C. in a 95% air/5% CO2 humidified incubator. Human STRA6 RNAi oligo sequences were 5′-[…]-3′ (S-1) (SEQ ID NO:3), 5′-[…]-3′ (S-2) (SEQ ID NO:4); and 5′-[…]-3′ (S-3) (SEQ ID NO:5). Stealth™ negative control RNAi with medium GC (Invitrogen) was used for a negative control. WiDr cells were transfected with 100 nM RNAi oligos using DharmaFect1 (Dharmacon) according to the manufacture's protocol. WiDr Cells were split one day before RNAi transfection and cells were incubated with RNAi oligos for 65 hrs after transfection. Retinoic acid treatment was applied for 55 hours. RNA was isolated from WiDr cells using the RNeasy kit (Qiagen). Reverse transcription was performed with Invitrogen's SuperScriptIII First-Strand Synthesis System. Semi-Quantitative PCR was carried out for 24 cycles at 95° C. for 30 sec (denaturation), 63° C. for 30 sec (annealing), and 72° C. for 30 min (extension). cDNA synthesized from 40 ng of total RNA was used for each reaction. Primers used for PCR to detect human STRA6 were 5′-[…]-3′ (human STRA6 forward primer (SEQ ID NO:6)), 5′-[…]-3′ (human STRA6 reverse primer (SEQ ID NO:7)).
# [1] = tested on: WiDr human colon adenocarcinoma cells; assay: Vitamin A uptake activity of WiDr cells from 3H-retinol/RBP; type: cell-based; settings: retinoic acid treatment 55 hours
# Method: Production of ^3H-retinol loaded RBP and retinol uptake assay based on ^3H-retinol/RBP: Apo-RBP was prepared from holo-RBP as described (3). Radioactive retinol (15-^3H(N)-retinol) was purchased from American Radiolabeled Chemicals Inc. Ten micrograms apo-His-RBP was incubated with 150 pmol retinol (3 μCi) at 24° C. overnight. Radiolabeled holo-His-RBP was bound to Ni-NTA resin and the resin was washed extensively with 10 mM imidazole in PBS. Radiolabeled His-RBP was eluted with 100 mM imidazole in PBS. For the vitamin A uptake assay, transfected or untransfected cells grown on 12-well or 24-well cell culture plates were washed once with PBS and incubated with the ^3H-retinol/RBP diluted in SFM for various lengths of time. The reactions were stopped by washing the cells with PBS and solubilizing cells in 1% Triton X-100 in PBS. Radioactivity was measured with a scintillation counter. […]
# RNAi transfection and retinoic acid treatment of human WiDr colon adenocarcinoma cells: WiDr cells (American Type Culture Collection) were grown in Earle's balanced salt media with 10% FBS at 37° C. in a 95% air/5% CO2 humidified incubator. […] Semi-Quantitative PCR was carried out for 24 cycles at 95° C. for 30 sec (denaturation), 63° C. for 30 sec (annealing), and 72° C. for 30 min (extension). cDNA synthesized from 40 ng of total RNA was used for each reaction. […]
compound,measurement,setting,value
"CC1=C(/C=C/C(C)=C/C=C/C(C)=C/C(=O)O)C(C)(C)CCC1 [Retinoic acid, reference compound]",STRA6 expression,human STRA6,increases
same,Vitamin A uptake activity,[1],increases
